Measured values as given in PMC11425227.
These are yes or no findings as the source states them, for the method shown. Binding seen in cells or lysates may run through a third protein. Some results given as binding are weak or reduced against the parent protein; the word gives no strength. Where a sequence is shown, tags or fusion partners need not be part of it.

Molecular target: p62/SQSTM1 (mouse (endogenous in primary hepatocytes)) (UniProt Q64337)
Assay: co-IP; reverse co-IP: endogenous p62 precipitated with anti-p62 antibody from lysates of primary hepatocytes infected with Ad-Eepd1-flag, treated with Baf A1 (100 nM, 4 h) under CIH (12 h and 24 h); IP lysis buffer 50 mM Tris-HCl, 150 mM NaCl, 1 mM EDTA, 1% NP-40, pH 7.4; overnight at 4 C; protein A/G magnetic beads; immunoblot for Eepd1

B1: Eepd1-flag (Eepd1 overexpressed from adenovirus Ad-Eepd1-flag) (enzyme, UniProt Q3TGW2 1-569)
chain: MGSTLGCHRSIPRDPSDLSHNRKFSAACNFSNILVNQERLNINTATEEELMTLPGVTRAVARSIVEYREYIGGFKKVEDLALVSGVGATKLEQVKFEICVSSKGNSAQHSPSSLRRDLLAEQQPHHLTTTVPLTPRVNINTATLAQLMSVRGLSEKMALSIVDYRREHGPFRSVEDLVRMDGINAAFLDRIRHQVFAERSRPPSTHTNGGLTFTAKPHPSPTSLSLQSEDLDLPPGGPTQIISMRPSVEAFGGMRDGRPVFRLATWNLQGCSVEKANNPGVREVVCMTLLENSIKLLAVQELLDKEALEKFCTELNQPILPNIRKWKGSRGCWRSIVAEKPSNQLQKGPCYSGFLWDTAANVELRDIPGRESSPSNGHAKAVGPSPFLARFKVGSNDLTLVNLQLTALALPGAENSSKNHSDGHRLLNFALTLQETLKGEKDVVILGDFGQGPDSNDYDILRREKFHHLVPAHTFTNISTRNPQGSKSVDNIWISKSLKKVFTGHWAVVREGLTNPWIPDNWSWGGVASEHCPVLAELYMEKDWSKKEVPRNGNGVTLEPSEANIKHER
binding: binds
